Results deposited as PubChem BioAssay AID1259254 (NCATS, 2017)
Aim: 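Gene knock-downs that lead to re-replication, shown by excess G2 DNA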 (primary screen). System: human HCT116 colorectal cancer cells. Reagent: single siRNA against human genes. Timing: 3 days. Measurement: 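Imaged Hoechst DNA stain sorts each cell into a cycle phase by DNA amount; per plate, G2 fraction set to 0% for non-targeting and 100% for GMNN siRNA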. Direction: G2 robust z-score and G2 cells, % of GMNN control: higher = more G2 cells, more excess DNA replication; raw share of cells in G2: higher = larger share of cells with G2 DNA content. Call rule: 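Active siRNAs have a G2 robust z of 5 or more median absolute deviations over the median, which in these data means about 38% or higher of GMNN control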.
The whole screen tested about 59,000 reagents; below is an unselected part. About 1,550 of them (2.6%) count as active. 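G2 share is only a proxy for re-replication; each gene was hit by three separate siRNAs, and active genes were retested.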 Raw values vary from plate to plate and are shown uncorrected. Entries without a mark were called inactive. Not stated in the record: the amount of reagent.

no.	target	PubChem SID	G2 robust z-score	G2 cells, % of GMNN control	raw share of cells in G2 (%)
1	MAN1A2 (mannosidase alpha class 1A member 2)	SID160729480	-1.48	-7.47	3.53
2	MAN1A2 (mannosidase alpha class 1A member 2)	SID160729481	0.148	4.01	5.14
3	MAN1A2 (mannosidase alpha class 1A member 2)	SID160729482	-0.931	-3.58	4.14
4	PPP1R27 (protein phosphatase 1 regulatory subunit 27)	SID160755459	1.06	10.4	8.28
5	PPP1R27 (protein phosphatase 1 regulatory subunit 27)	SID160755460	-0.664	-1.7	2.82
6	PPP1R27 (protein phosphatase 1 regulatory subunit 27)	SID160755461	-1.05	-4.4	0.534
7	PIGS (phosphatidylinositol glycan anchor biosynthesis class S)	SID160754573	1.19	11.4	8.65
8	PIGS (phosphatidylinositol glycan anchor biosynthesis class S)	SID160754574	-1.13	-5	1.84
9	PIGS (phosphatidylinositol glycan anchor biosynthesis class S)	SID160754575	0.195	4.34	3.09
10	NKX2-1 (NK2 homeobox 1)	SID160718088	-0.54	-0.835	4.5
11	NKX2-1 (NK2 homeobox 1)	SID160718089	-0.801	-2.67	4.32
12	NKX2-1 (NK2 homeobox 1)	SID160731836	-0.425	-0.023	4.37
13	SNRPB2 (small nuclear ribonucleoprotein polypeptide B2)	SID160717123	0.163	4.12	5.96
14	SNRPB2 (small nuclear ribonucleoprotein polypeptide B2)	SID160717124	0.298	5.06	5.63
15	SNRPB2 (small nuclear ribonucleoprotein polypeptide B2)	SID160717125	-0.87	-3.16	4.62
16	BORCS5 (BLOC-1 related complex subunit 5)	SID160755614	1.54	13.8	9.61
17	BORCS5 (BLOC-1 related complex subunit 5)	SID160755615	0.0446	3.28	4.31
18	BORCS5 (BLOC-1 related complex subunit 5)	SID160755616	-0.324	0.689	2.02
19	EGLN2 (egl-9 family hypoxia inducible factor 2)	SID160730524	-0.475	-0.374	5.5
20	EGLN2 (egl-9 family hypoxia inducible factor 2)	SID160740023	0.0284	3.17	6.33
21	EGLN2 (egl-9 family hypoxia inducible factor 2)	SID160740232	0.796	8.57	7.72
22	NODAL (nodal growth differentiation factor)	SID160778121	0.17	4.17	6.74
23	NODAL (nodal growth differentiation factor)	SID160778122	0.674	7.71	7.27
24	NODAL (nodal growth differentiation factor)	SID160778123	3.14	25	12.4
25	CEP104 (centrosomal protein 104)	SID160722929	-0.945	-3.68	3.67
26	CEP104 (centrosomal protein 104)	SID160722930	-0.432	-0.0715	3.91
27	CEP104 (centrosomal protein 104)	SID160722931	-1.14	-5.08	1.56

Limited to “G2 cells, % of GMNN control” (3 entries from above):
SNRPB2 (small nuclear ribonucleoprotein polypeptide B2) [SID160717123]	4.12
SNRPB2 (small nuclear ribonucleoprotein polypeptide B2) [SID160717124]	5.06
SNRPB2 (small nuclear ribonucleoprotein polypeptide B2) [SID160717125]	-3.16

The results go on.
no.	target	PubChem SID	G2 robust z-score	G2 cells, % of GMNN control	raw share of cells in G2 (%)
28	TPPP (tubulin polymerization promoting protein)	SID160729891	0.628	7.39	6.39
29	TPPP (tubulin polymerization promoting protein)	SID160729892	-1.51	-7.62	3.31
30	TPPP (tubulin polymerization promoting protein)	SID160730500	-0.76	-2.38	3.36
31	FGF16 (fibroblast growth factor 16)	SID160720899	1.93	16.6	12.5
32	FGF16 (fibroblast growth factor 16)	SID160720900	1.02	10.1	7.92
33	FGF16 (fibroblast growth factor 16)	SID160720901	-0.662	-1.69	2.75
34	ENDOU (endonuclease, poly(U) specific)	SID160721118	0.0176	3.09	6.64
35	ENDOU (endonuclease, poly(U) specific)	SID160721119	-1.26	-5.89	2.82
36	ENDOU (endonuclease, poly(U) specific)	SID160721121	-0.141	1.98	4.65
37	DNAH3 (dynein axonemal heavy chain 3)	SID160743806	-0.107	2.21	5.37
38	DNAH3 (dynein axonemal heavy chain 3)	SID160743808	0.0255	3.15	5.44
39	DNAH3 (dynein axonemal heavy chain 3)	SID160743809	-0.554	-0.933	2.84
40	RPL27A (ribosomal protein L27a)	SID160716083	3.65	28.7	17.2
41	RPL27A (ribosomal protein L27a)	SID160716084	4.54	34.9	18
42	RPL27A (ribosomal protein L27a)	SID160716085	1.17	11.2	7.41
43	CNIH2 (cornichon family AMPA receptor auxiliary protein 2)	SID160762181	-0.947	-3.7	2.24
44	CNIH2 (cornichon family AMPA receptor auxiliary protein 2)	SID160762182	0.784	8.49	6.04
45	CNIH2 (cornichon family AMPA receptor auxiliary protein 2)	SID160762183	1.09	10.6	6.58
46	LOC644893 (MAGE family member E1 pseudogene)	SID160769367	0.285	4.97	5.53
47	LOC644893 (MAGE family member E1 pseudogene)	SID160769368	1.41	12.9	7.92
48	LOC644893 (MAGE family member E1 pseudogene)	SID160769369	-0.623	-1.41	2.73
